Measured values taken from the supplement of paper PMC11438910.
The list shows a part of the results. Only a few entries rise above the background.

Columns and labels:
Assay in all cases: fluorescence intensity of antibody binding to polysaccharide-coupled beads; higher = stronger binding
[1] = molecular target: pneumococcal polysaccharide Pn11F
[2] = molecular target: pneumococcal polysaccharide Pn12A
[3] = molecular target: pneumococcal polysaccharide Pn12B
[4] = molecular target: pneumococcal polysaccharide Pn12F
[5] = molecular target: pneumococcal polysaccharide Pn13
[6] = molecular target: pneumococcal polysaccharide Pn14
[7] = molecular target: pneumococcal polysaccharide Pn15A
[8] = molecular target: pneumococcal polysaccharide Pn15B
[9] = molecular target: pneumococcal polysaccharide Pn15C
[10] = molecular target: pneumococcal polysaccharide Pn15F
[11] = molecular target: pneumococcal polysaccharide Pn16A
[12] = molecular target: pneumococcal polysaccharide Pn16F
[13] = molecular target: pneumococcal polysaccharide Pn17A
[14] = molecular target: pneumococcal polysaccharide Pn17F
[15] = molecular target: pneumococcal polysaccharide Pn18A
[16] = molecular target: pneumococcal polysaccharide Pn18B
[17] = molecular target: pneumococcal polysaccharide Pn18C
[18] = molecular target: pneumococcal polysaccharide Pn18F
[19] = molecular target: pneumococcal polysaccharide Pn19A
[20] = molecular target: pneumococcal polysaccharide Pn19B
[21] = molecular target: pneumococcal polysaccharide Pn19C
[22] = molecular target: pneumococcal polysaccharide Pn19F
[23] = molecular target: pneumococcal polysaccharide Pn2
[24] = antibody concentration 2.8593 ng/mL
[25] = antibody concentration 15.2894 ng/mL
[26] = antibody concentration 81.7561 ng/mL
[27] = antibody concentration 437.17 ng/mL
[28] = antibody concentration 2337.65 ng/mL
[29] = antibody concentration 12500 ng/mL
[30] = antibody concentration 0.1 ng/mL
[31] = antibody concentration 0.534724 ng/mL

B1: 4-127.2 (protein)
chain 1: QVQLQESGPGLVKPSETLSLTCAVSGYSVNSGHGWTWIRQSPGKGLEWIGYIGGGSGSSNYNPSLKSRVTISKDTSNNQLSLKLRSLTTADTAMYYCARRVPADRSGNDYWGQGVLVTVSS
chain 2: QSVLTQPPSVSGDPGQRVTISCTGSSSNIGDYYGYWYQQFPGTAPKLLIFDDNNRPSGISDRFSGSKAGTSASLTITGLQPGDEADYYCGAWDGSLNAHVFGSGTKLTVL
fluorescence intensity [1, 24]: 14 MFI
fluorescence intensity [1, 25]: 13 MFI
fluorescence intensity [1, 26]: 14 MFI
fluorescence intensity [1, 27]: 16 MFI
fluorescence intensity [1, 28]: 17 MFI
fluorescence intensity [1, 29]: 26.5 MFI
fluorescence intensity [2, 30]: 15 MFI
fluorescence intensity [2, 31]: 15.5 MFI
fluorescence intensity [2, 24]: 13.5 MFI
fluorescence intensity [2, 25]: 15 MFI
fluorescence intensity [2, 26]: 14 MFI
fluorescence intensity [2, 27]: 15.5 MFI
fluorescence intensity [2, 28]: 18 MFI
fluorescence intensity [2, 29]: 39 MFI
fluorescence intensity [3, 30]: 15.5 MFI
fluorescence intensity [3, 31]: 14.8 MFI
fluorescence intensity [3, 24]: 16 MFI
fluorescence intensity [3, 25]: 15.5 MFI
fluorescence intensity [3, 26]: 16.5 MFI
fluorescence intensity [3, 27]: 15 MFI
fluorescence intensity [3, 28]: 19 MFI
fluorescence intensity [3, 29]: 40 MFI
fluorescence intensity [4, 30]: 19 MFI
fluorescence intensity [4, 31]: 18 MFI
fluorescence intensity [4, 24]: 18.5 MFI
fluorescence intensity [4, 25]: 16.5 MFI
fluorescence intensity [4, 26]: 18 MFI
fluorescence intensity [4, 27]: 21 MFI
fluorescence intensity [4, 28]: 26.5 MFI
fluorescence intensity [4, 29]: 63 MFI
fluorescence intensity [5, 30]: 17.8 MFI
fluorescence intensity [5, 31]: 18 MFI
fluorescence intensity [5, 24]: 17 MFI
fluorescence intensity [5, 25]: 17.8 MFI
fluorescence intensity [5, 26]: 18.5 MFI
fluorescence intensity [5, 27]: 19 MFI
fluorescence intensity [5, 28]: 20.5 MFI
fluorescence intensity [5, 29]: 47.5 MFI
fluorescence intensity [6, 30]: 14 MFI
fluorescence intensity [6, 31]: 13 MFI
fluorescence intensity [6, 24]: 13 MFI
fluorescence intensity [6, 25]: 14.5 MFI
fluorescence intensity [6, 26]: 14.5 MFI
fluorescence intensity [6, 27]: 19.2 MFI
fluorescence intensity [6, 28]: 41.5 MFI
fluorescence intensity [6, 29]: 280 MFI
fluorescence intensity [7, 30]: 13 MFI
fluorescence intensity [7, 31]: 12.5 MFI
fluorescence intensity [7, 24]: 12 MFI
fluorescence intensity [7, 25]: 12.5 MFI
fluorescence intensity [7, 26]: 12 MFI
fluorescence intensity [7, 27]: 13.5 MFI
fluorescence intensity [7, 28]: 13.5 MFI
fluorescence intensity [7, 29]: 17 MFI
fluorescence intensity [8, 30]: 17.5 MFI
fluorescence intensity [8, 31]: 19 MFI
fluorescence intensity [8, 24]: 19 MFI
fluorescence intensity [8, 25]: 18 MFI
fluorescence intensity [8, 26]: 17 MFI
fluorescence intensity [8, 27]: 24 MFI
fluorescence intensity [8, 28]: 24 MFI
fluorescence intensity [8, 29]: 29 MFI
fluorescence intensity [9, 30]: 15.2 MFI
fluorescence intensity [9, 31]: 16.5 MFI
fluorescence intensity [9, 24]: 16.5 MFI
fluorescence intensity [9, 25]: 15.5 MFI
fluorescence intensity [9, 26]: 18 MFI
fluorescence intensity [9, 27]: 17 MFI
fluorescence intensity [9, 28]: 20.8 MFI
fluorescence intensity [9, 29]: 22.8 MFI
fluorescence intensity [10, 30]: 16 MFI
fluorescence intensity [10, 31]: 18 MFI
fluorescence intensity [10, 24]: 16.5 MFI
fluorescence intensity [10, 25]: 18.5 MFI
fluorescence intensity [10, 26]: 17.5 MFI
fluorescence intensity [10, 27]: 17 MFI
fluorescence intensity [10, 28]: 19.5 MFI
fluorescence intensity [10, 29]: 34 MFI
fluorescence intensity [11, 30]: 14 MFI
fluorescence intensity [11, 31]: 14 MFI
fluorescence intensity [11, 24]: 12.8 MFI
fluorescence intensity [11, 25]: 15.8 MFI
fluorescence intensity [11, 26]: 15.5 MFI
fluorescence intensity [11, 27]: 14.5 MFI
fluorescence intensity [11, 28]: 15 MFI
fluorescence intensity [11, 29]: 25.5 MFI
fluorescence intensity [12, 30]: 23.8 MFI
fluorescence intensity [12, 31]: 22 MFI
fluorescence intensity [12, 24]: 23 MFI
fluorescence intensity [12, 25]: 23.2 MFI
fluorescence intensity [12, 26]: 23.8 MFI
fluorescence intensity [12, 27]: 23.5 MFI
fluorescence intensity [12, 28]: 29.8 MFI
fluorescence intensity [12, 29]: 33.2 MFI
fluorescence intensity [13, 30]: 21 MFI
fluorescence intensity [13, 31]: 21 MFI
fluorescence intensity [13, 24]: 20.5 MFI
fluorescence intensity [13, 25]: 19.5 MFI
fluorescence intensity [13, 26]: 20.5 MFI
fluorescence intensity [13, 27]: 20 MFI
fluorescence intensity [13, 28]: 20.5 MFI
fluorescence intensity [13, 29]: 25 MFI
fluorescence intensity [14, 30]: 25.5 MFI
fluorescence intensity [14, 31]: 25 MFI
fluorescence intensity [14, 24]: 25 MFI
fluorescence intensity [14, 25]: 23.8 MFI
fluorescence intensity [14, 26]: 24.5 MFI
fluorescence intensity [14, 27]: 25.5 MFI
fluorescence intensity [14, 28]: 26.5 MFI
fluorescence intensity [14, 29]: 30.8 MFI
fluorescence intensity [15, 30]: 23 MFI
fluorescence intensity [15, 31]: 23.5 MFI
fluorescence intensity [15, 24]: 23 MFI
fluorescence intensity [15, 25]: 22 MFI
fluorescence intensity [15, 26]: 22 MFI
fluorescence intensity [15, 27]: 24.5 MFI
fluorescence intensity [15, 28]: 25.5 MFI
fluorescence intensity [15, 29]: 33 MFI
fluorescence intensity [16, 30]: 29 MFI
fluorescence intensity [16, 31]: 29 MFI
fluorescence intensity [16, 24]: 30 MFI
fluorescence intensity [16, 25]: 28.5 MFI
fluorescence intensity [16, 26]: 30.5 MFI
fluorescence intensity [16, 27]: 30 MFI
fluorescence intensity [16, 28]: 33.5 MFI
fluorescence intensity [16, 29]: 39.5 MFI
fluorescence intensity [17, 30]: 16.8 MFI
fluorescence intensity [17, 31]: 17.8 MFI
fluorescence intensity [17, 24]: 17.5 MFI
fluorescence intensity [17, 25]: 17 MFI
fluorescence intensity [17, 26]: 17.5 MFI
fluorescence intensity [17, 27]: 23 MFI
fluorescence intensity [17, 28]: 26 MFI
fluorescence intensity [17, 29]: 32.5 MFI
fluorescence intensity [18, 30]: 23 MFI
fluorescence intensity [18, 31]: 21.8 MFI
fluorescence intensity [18, 24]: 23 MFI
fluorescence intensity [18, 25]: 21.5 MFI
fluorescence intensity [18, 26]: 22.5 MFI
fluorescence intensity [18, 27]: 24.5 MFI
fluorescence intensity [18, 28]: 29 MFI
fluorescence intensity [18, 29]: 34.2 MFI
fluorescence intensity [19, 30]: 17 MFI
fluorescence intensity [19, 31]: 16.2 MFI
fluorescence intensity [19, 24]: 18 MFI
fluorescence intensity [19, 25]: 17.5 MFI
fluorescence intensity [19, 26]: 19 MFI
fluorescence intensity [19, 27]: 18.2 MFI
fluorescence intensity [19, 28]: 19.5 MFI
fluorescence intensity [19, 29]: 31 MFI
fluorescence intensity [20, 30]: 28.5 MFI
fluorescence intensity [20, 31]: 28.2 MFI
fluorescence intensity [20, 24]: 27.5 MFI
fluorescence intensity [20, 25]: 28 MFI
fluorescence intensity [20, 26]: 28.2 MFI
fluorescence intensity [20, 27]: 28.5 MFI
fluorescence intensity [20, 28]: 48.2 MFI
fluorescence intensity [20, 29]: 328 MFI
fluorescence intensity [21, 30]: 25 MFI
fluorescence intensity [21, 31]: 24.5 MFI
fluorescence intensity [21, 24]: 24 MFI
fluorescence intensity [21, 25]: 24.5 MFI
fluorescence intensity [21, 26]: 23.8 MFI
fluorescence intensity [21, 27]: 24 MFI
fluorescence intensity [21, 28]: 37.5 MFI
fluorescence intensity [21, 29]: 200 MFI
fluorescence intensity [22, 30]: 24 MFI
fluorescence intensity [22, 31]: 23.8 MFI
fluorescence intensity [22, 24]: 24.8 MFI
fluorescence intensity [22, 25]: 24 MFI
fluorescence intensity [22, 26]: 25.8 MFI
fluorescence intensity [22, 27]: 30 MFI
fluorescence intensity [22, 28]: 34 MFI
fluorescence intensity [22, 29]: 41.8 MFI
fluorescence intensity [23, 30]: 20.2 MFI
fluorescence intensity [23, 31]: 19 MFI
fluorescence intensity [23, 24]: 19.5 MFI
fluorescence intensity [23, 25]: 18 MFI
fluorescence intensity [23, 26]: 19.5 MFI
fluorescence intensity [23, 27]: 19.5 MFI
